Source: the supplement of paper PMC6411743
± gives the standard deviation of the averaged measurements. Only a part is listed here, and it is no random draw.

Amino acid sequences for entries named in this document (tags omitted). A change or cut given only in a name is not applied to a line headed by its entry.
UniProt P20073: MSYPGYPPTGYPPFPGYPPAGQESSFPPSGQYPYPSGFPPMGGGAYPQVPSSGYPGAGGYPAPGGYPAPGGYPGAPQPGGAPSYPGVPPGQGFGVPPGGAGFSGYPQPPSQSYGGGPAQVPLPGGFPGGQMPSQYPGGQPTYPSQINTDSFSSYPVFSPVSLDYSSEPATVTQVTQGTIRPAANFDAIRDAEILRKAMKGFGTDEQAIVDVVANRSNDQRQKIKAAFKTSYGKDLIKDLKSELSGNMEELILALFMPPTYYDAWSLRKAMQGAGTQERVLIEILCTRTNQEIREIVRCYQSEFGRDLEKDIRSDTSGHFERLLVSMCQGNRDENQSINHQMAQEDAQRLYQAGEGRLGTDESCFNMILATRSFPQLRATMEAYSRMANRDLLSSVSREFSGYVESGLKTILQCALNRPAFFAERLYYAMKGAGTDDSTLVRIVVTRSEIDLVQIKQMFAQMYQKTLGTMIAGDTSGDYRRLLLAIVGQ
UniProt P20700: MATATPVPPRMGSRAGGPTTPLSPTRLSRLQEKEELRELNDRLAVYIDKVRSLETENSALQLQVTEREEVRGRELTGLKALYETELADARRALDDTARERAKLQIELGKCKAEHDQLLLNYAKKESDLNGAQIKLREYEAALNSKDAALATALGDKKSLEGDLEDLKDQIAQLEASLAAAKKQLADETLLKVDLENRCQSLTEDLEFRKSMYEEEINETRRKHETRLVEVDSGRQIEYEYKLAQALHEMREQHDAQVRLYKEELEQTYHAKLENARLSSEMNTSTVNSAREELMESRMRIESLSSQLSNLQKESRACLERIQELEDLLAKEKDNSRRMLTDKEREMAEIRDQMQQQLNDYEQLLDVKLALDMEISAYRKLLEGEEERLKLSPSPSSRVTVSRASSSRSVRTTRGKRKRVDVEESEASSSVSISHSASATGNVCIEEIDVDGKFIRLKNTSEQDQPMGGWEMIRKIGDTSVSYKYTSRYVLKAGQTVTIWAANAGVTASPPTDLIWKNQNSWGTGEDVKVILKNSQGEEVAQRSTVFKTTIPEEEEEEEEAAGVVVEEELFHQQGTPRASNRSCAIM
UniProt P19447: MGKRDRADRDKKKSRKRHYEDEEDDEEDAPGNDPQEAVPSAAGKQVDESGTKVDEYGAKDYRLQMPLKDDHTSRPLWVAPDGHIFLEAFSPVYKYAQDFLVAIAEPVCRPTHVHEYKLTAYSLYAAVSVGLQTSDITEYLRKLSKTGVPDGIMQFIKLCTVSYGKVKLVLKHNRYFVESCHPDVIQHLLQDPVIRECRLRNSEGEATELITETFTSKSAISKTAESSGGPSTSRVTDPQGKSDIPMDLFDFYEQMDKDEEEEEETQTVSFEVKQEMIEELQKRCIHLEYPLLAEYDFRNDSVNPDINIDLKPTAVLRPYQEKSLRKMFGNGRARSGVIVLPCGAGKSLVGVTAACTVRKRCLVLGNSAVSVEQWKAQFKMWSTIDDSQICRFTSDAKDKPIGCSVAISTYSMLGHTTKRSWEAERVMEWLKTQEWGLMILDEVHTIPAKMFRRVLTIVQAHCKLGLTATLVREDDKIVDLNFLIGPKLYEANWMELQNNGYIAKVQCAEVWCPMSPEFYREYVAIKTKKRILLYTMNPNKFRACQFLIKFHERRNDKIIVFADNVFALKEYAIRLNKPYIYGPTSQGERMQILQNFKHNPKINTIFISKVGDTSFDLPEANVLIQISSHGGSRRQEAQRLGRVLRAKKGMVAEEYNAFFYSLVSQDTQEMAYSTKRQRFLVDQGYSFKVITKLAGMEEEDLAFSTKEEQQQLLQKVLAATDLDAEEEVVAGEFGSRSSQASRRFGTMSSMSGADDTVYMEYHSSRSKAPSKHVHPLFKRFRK
UniProt P31937: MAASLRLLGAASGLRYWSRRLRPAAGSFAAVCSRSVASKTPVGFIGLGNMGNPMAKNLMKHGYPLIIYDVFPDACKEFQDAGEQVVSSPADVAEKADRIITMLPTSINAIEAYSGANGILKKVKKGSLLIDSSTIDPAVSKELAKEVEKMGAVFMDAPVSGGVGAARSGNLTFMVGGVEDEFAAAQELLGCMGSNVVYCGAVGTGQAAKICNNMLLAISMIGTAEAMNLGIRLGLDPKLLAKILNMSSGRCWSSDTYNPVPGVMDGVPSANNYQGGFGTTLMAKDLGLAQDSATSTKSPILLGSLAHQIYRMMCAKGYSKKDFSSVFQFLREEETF
UniProt P30825: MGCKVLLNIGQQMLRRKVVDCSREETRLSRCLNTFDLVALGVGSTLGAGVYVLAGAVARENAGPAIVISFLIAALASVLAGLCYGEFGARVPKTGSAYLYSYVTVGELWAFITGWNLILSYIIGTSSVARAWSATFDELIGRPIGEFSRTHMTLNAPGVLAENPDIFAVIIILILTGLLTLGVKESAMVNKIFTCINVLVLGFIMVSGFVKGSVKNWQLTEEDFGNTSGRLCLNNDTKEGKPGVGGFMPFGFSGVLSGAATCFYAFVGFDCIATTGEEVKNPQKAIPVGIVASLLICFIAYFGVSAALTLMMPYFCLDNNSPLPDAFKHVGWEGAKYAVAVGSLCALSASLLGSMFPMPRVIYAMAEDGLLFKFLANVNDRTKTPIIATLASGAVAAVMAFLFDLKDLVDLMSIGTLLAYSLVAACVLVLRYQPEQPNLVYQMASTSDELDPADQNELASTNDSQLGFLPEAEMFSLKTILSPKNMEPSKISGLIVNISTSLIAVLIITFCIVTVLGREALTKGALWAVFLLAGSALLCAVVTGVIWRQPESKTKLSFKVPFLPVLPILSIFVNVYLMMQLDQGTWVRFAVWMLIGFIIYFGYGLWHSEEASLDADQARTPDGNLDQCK
UniProt P20645: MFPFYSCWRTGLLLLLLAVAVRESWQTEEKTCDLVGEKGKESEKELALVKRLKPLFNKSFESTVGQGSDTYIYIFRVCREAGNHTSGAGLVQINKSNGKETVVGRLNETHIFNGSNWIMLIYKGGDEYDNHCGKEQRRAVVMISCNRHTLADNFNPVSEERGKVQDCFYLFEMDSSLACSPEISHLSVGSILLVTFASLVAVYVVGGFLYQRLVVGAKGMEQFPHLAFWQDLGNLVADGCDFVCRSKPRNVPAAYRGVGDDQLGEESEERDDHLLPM
UniProt P23771: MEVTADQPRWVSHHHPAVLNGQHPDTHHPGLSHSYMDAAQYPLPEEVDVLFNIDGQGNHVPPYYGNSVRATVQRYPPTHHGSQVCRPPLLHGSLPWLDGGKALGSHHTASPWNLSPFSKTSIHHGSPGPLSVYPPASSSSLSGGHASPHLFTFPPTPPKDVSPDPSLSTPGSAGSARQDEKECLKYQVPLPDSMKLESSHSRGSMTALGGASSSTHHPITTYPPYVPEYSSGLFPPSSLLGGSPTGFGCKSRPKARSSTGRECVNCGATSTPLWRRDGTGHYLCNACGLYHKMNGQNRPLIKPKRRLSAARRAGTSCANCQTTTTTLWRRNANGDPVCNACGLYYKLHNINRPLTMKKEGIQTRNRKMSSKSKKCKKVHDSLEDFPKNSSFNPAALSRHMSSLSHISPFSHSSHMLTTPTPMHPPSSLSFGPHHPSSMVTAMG
UniProt P27824: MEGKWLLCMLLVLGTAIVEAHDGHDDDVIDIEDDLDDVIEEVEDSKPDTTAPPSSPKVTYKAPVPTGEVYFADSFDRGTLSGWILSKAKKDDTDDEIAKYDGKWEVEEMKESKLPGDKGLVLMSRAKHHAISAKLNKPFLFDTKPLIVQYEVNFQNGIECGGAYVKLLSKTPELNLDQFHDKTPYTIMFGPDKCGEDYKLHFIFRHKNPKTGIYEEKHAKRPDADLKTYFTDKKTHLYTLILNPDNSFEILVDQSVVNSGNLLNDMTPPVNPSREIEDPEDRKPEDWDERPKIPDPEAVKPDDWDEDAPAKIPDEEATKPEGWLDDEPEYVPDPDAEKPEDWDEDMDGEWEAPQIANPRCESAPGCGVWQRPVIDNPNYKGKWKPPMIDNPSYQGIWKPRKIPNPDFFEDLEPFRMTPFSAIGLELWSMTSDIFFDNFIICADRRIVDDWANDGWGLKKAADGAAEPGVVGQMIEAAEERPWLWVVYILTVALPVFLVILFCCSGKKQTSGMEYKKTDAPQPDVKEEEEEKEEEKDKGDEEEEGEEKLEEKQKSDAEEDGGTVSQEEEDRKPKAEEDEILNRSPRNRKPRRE
UniProt P30086: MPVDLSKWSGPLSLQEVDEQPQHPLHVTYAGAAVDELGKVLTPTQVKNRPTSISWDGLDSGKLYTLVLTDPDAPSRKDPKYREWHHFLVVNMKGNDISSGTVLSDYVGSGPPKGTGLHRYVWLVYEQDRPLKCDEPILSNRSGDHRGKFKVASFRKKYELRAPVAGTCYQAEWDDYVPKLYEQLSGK
UniProt P20701: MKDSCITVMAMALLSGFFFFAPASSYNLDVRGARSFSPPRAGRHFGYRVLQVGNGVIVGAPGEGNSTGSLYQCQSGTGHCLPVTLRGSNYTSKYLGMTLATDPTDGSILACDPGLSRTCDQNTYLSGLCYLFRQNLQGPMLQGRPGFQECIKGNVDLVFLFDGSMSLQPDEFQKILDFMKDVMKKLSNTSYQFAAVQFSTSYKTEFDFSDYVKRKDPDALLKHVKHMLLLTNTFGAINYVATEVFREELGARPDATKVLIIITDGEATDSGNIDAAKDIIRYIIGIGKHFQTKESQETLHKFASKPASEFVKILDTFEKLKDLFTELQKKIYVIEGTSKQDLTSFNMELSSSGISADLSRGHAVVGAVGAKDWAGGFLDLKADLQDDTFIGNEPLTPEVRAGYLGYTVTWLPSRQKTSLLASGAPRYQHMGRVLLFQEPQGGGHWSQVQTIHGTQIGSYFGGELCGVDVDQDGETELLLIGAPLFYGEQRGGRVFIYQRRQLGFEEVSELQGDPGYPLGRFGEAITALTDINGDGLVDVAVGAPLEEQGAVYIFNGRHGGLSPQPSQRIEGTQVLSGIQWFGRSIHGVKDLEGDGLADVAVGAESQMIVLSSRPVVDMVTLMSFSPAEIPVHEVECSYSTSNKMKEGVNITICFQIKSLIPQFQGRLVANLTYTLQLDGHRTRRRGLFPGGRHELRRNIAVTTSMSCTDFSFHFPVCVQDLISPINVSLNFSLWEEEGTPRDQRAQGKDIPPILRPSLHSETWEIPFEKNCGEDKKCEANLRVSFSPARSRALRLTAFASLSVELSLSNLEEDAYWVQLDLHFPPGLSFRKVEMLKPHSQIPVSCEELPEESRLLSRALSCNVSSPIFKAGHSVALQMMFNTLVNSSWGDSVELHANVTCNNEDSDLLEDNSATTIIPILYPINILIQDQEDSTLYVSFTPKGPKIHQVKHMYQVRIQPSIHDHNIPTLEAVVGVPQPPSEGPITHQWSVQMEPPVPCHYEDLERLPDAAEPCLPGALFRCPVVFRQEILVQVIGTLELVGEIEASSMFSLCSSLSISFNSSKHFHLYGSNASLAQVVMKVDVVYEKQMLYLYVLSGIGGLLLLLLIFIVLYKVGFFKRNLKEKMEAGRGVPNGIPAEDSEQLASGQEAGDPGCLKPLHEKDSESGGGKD
UniProt P19474, whole entry: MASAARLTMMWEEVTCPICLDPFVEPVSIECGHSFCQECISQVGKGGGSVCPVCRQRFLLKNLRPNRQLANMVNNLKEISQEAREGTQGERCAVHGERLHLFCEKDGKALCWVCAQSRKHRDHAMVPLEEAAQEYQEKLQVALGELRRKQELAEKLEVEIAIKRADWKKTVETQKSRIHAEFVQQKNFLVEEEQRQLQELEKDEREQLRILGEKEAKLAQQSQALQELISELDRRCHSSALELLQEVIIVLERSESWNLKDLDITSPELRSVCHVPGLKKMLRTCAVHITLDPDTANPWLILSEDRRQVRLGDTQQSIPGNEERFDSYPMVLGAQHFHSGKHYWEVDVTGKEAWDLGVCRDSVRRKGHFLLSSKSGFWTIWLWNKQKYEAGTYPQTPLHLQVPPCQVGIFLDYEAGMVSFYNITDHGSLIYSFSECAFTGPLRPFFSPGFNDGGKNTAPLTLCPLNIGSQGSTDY
UniProt P26641, whole entry: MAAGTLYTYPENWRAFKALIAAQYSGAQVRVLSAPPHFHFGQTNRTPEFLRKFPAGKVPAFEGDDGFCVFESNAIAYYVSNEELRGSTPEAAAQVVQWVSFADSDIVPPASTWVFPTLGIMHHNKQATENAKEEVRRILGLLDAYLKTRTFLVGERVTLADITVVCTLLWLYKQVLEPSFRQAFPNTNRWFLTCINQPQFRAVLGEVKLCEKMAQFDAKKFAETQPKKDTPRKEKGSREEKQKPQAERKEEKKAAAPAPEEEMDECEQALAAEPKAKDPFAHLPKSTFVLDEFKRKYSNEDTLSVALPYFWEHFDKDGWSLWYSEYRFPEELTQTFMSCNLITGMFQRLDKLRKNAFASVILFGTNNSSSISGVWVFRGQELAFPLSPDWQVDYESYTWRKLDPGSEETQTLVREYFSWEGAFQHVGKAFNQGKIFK

Compound: Nc1ncnc2c1ncn2[C@@H]1O[C@H](COP(=O)(O)OP(=O)(O)NP(=O)(O)O)[C@@H](O)[C@H]1O [adenylyl imidodiphosphate]
Assay: NP40-soluble protein abundance relative to vehicle (solubility fold change) (ratio); higher = more soluble protein in presence of AMP-PNP
Method in brief: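 In three independent experiments, Jurkat crude lysate made by Dounce homogenisation was treated for 10 min at room temperature and then 3 min at 37 °C with eight concentrations ranging from 0.1 to 10 mM. It was then solubilised with 0.8% NP40 plus benzonase for 60 min at 4 °C and ultracentrifuged. The supernatant was TMT-labelled for LC-MS/MS, and each value is the fold change against the detergent-processed vehicle for the same replicate, using vsn-normalised intensities.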

Target	NP40-soluble protein abundance (concentration: 1mM)	NP40-soluble protein abundance (concentration: 2mM)	NP40-soluble protein abundance (concentration: 4mM)	NP40-soluble protein abundance (concentration: 6mM)	NP40-soluble protein abundance (concentration: 8mM)	NP40-soluble protein abundance (concentration: 10mM)
RRM1 (UniProt P23921)	0.992 ± 0.037	0.877 ± 0.088	0.951 ± 0.031	0.955 ± 0.076	0.989 ± 0.063	0.928 ± 0.08
UniProt P19793-2	1.02 ± 0.029	1 ± 0.035	0.9871 ± 0.0057	0.986 ± 0.058	0.9769 ± 0.0031	0.9745 ± 0.0086
FEN1 (UniProt P39748)	1.02 ± 0.018	1.04 ± 0.081	1.01 ± 0.07	1.04 ± 0.022	0.991 ± 0.053	1.04 ± 0.059
DTYMK (UniProt P23919)	0.975 ± 0.027	0.936 ± 0.02	0.9823 ± 0.0086	1.01 ± 0.056	0.998 ± 0.03	1.012 ± 0.004
UniProt P20073 and related entries	0.966 ± 0.053	0.996 ± 0.093	0.989 ± 0.069	0.998 ± 0.086	1.04 ± 0.052	0.995 ± 0.096
LMNB1 (UniProt P20700)	0.963 ± 0.017	0.929 ± 0.041	0.828 ± 0.032	0.776 ± 0.015	0.709 ± 0.03	0.718 ± 0.037
UniProt P17980 and related entries	0.932 ± 0.041	0.905 ± 0.055	0.906 ± 0.058	0.87 ± 0.1	0.877 ± 0.082	0.876 ± 0.1
EIF2S2 (UniProt P20042)	1.046 ± 0.0015	1.1 ± 0.039	1.09 ± 0.011	1.16 ± 0.029	1.14 ± 0.05	1.19 ± 0.014
GTF2E2 (UniProt P29084)	1.04 ± 0.026	1.14 ± 0.11	1.07 ± 0.061	1.15 ± 0.096	1.1 ± 0.13	1.21 ± 0.16
ERCC3 (UniProt P19447)	1.03 ± 0.03	1.01 ± 0.057	1.03 ± 0.043	1.03 ± 0.051	1.04 ± 0.052	1.01 ± 0.038
HIBADH (UniProt P31937)	1.04 ± 0.041	1.06 ± 0.044	1.03 ± 0.033	0.993 ± 0.011	0.998 ± 0.0079	0.989 ± 0.039
SLC7A1 (UniProt P30825)	0.989 ± 0.005	1 ± 0.11	0.977 ± 0.012	0.97 ± 0.068	0.9401 ± 0.0085	0.922 ± 0.02
UniProt P27635 and related entries	0.97 ± 0.037	0.939 ± 0.022	0.879 ± 0.059	0.865 ± 0.078	0.726 ± 0.18	0.908 ± 0.04
COIL (UniProt P38432)	0.989 ± 0.02	1.06 ± 0.013	1.07 ± 0.055	1.09 ± 0.013	1.15 ± 0.047	1.17 ± 0.065
M6PR (UniProt P20645)	1 ± 0.027	1.06 ± 0.14	0.978 ± 0.055	1.07 ± 0.047	1.02 ± 0.036	1.03 ± 0.06
UniProt P24539 and related entries	0.929 ± 0.076	0.962 ± 0.056	0.886 ± 0.1	0.911 ± 0.059	0.944 ± 0.05	0.808 ± 0.085
UniProt P23771 and related entries	0.959 ± 0.029	0.99 ± 0.043	0.9254 ± 0.0013	0.895 ± 0.0095	0.908 ± 0.012	0.908 ± 0.022
UniProt P30048 and related entries	0.9708 ± 0.0081	0.95 ± 0.025	0.901 ± 0.022	0.874 ± 0.068	0.801 ± 0.083	0.722 ± 0.12
CD82 (UniProt P27701)	1.15 ± 0.1	1.26 ± 0.036	1.11 ± 0.12	1.1 ± 0.081	1.03 ± 0.026	1.08 ± 0.074
ARID4A (UniProt P29374)	1.06 ± 0.053	1.07 ± 0.039	1.07 ± 0.036	1.03 ± 0.031	1.01 ± 0.032	1.07 ± 0.033
UniProt P31629	0.965 ± 0.038	1.06 ± 0.058	0.988 ± 0.01	1.01 ± 0.023	0.954 ± 0.026	0.977 ± 0.033
UniProt P19367 and related entries	0.984 ± 0.019	0.883 ± 0.097	0.964 ± 0.03	0.995 ± 0.054	1.03 ± 0.011	0.964 ± 0.013
UniProt P27824 and related entries	1.01 ± 0.026	0.991 ± 0.011	0.985 ± 0.019	0.995 ± 0.025	1.009 ± 0.01	0.969 ± 0.039
UniProt P38159 and related entries	1.12 ± 0.09	1.34 ± 0.094	1.34 ± 0.037	1.53 ± 0.16	1.58 ± 0.19	1.82 ± 0.16
PEBP1 (UniProt P30086)	1.008 ± 0.0089	1.01 ± 0.037	1.01 ± 0.016	1.05 ± 0.039	1.05 ± 0.03	1.05 ± 0.043
UniProt P20701 and related entries	1 ± 0.025	1.03 ± 0.096	1.04 ± 0.04	1.06 ± 0.072	1.03 ± 0.062	1.09 ± 0.076
TRIM21 (UniProt P19474)	0.9726 ± 0.0096	0.982 ± 0.024	0.977 ± 0.035	0.97 ± 0.016	0.964 ± 0.013	0.954 ± 0.048
UniProt P36954	1.01 ± 0.022	1.05 ± 0.039	0.998 ± 0.026	0.958 ± 0.051	0.965 ± 0.066	0.95 ± 0.051
DLST (UniProt P36957)	1 ± 0.17	0.979 ± 0.17	1 ± 0.18	1.01 ± 0.2	1.01 ± 0.15	1.05 ± 0.23
EEF1G (UniProt P26641)	0.967 ± 0.038	0.917 ± 0.078	0.894 ± 0.028	0.91 ± 0.078	0.888 ± 0.051	0.88 ± 0.08

Random excerpt: 2 records from the list, in no set order.
Target	NP40-soluble protein abundance (concentration: 1mM)	NP40-soluble protein abundance (concentration: 2mM)	NP40-soluble protein abundance (concentration: 4mM)	NP40-soluble protein abundance (concentration: 6mM)	NP40-soluble protein abundance (concentration: 8mM)	NP40-soluble protein abundance (concentration: 10mM)
DTYMK (UniProt P23919)	0.975 ± 0.027	0.936 ± 0.02	0.9823 ± 0.0086	1.01 ± 0.056	0.998 ± 0.03	1.012 ± 0.004
UniProt P38159 and related entries	1.12 ± 0.09	1.34 ± 0.094	1.34 ± 0.037	1.53 ± 0.16	1.58 ± 0.19	1.82 ± 0.16
